Literature values in patent US20220354764A1, “METHODS FOR PROMOTING HAIR GROWTH” (Follica, Inc., priority 2018, published 2022).
At least one structure is not confirmed: it was looked up by name or label, or the drawing left a doubt.

Tested on: men with AGA
Conditions: weekly dermaroller combined with minoxidil, 12 weeks; cited from earlier work

In the case of `Nc1cc(N2CCCCC2)nc(N)[n+]1[O-]` [minoxidil], the “hair growth with dermaroller plus minoxidil versus minoxidil alone (hair count, patient/investigator assessment)” value is given as “statistically superior”.
